Laboratory results: PMC4871701
No constants are given. Whether binding was seen depends on the method and setting. For part of these data: Binding seen in cells or lysates may run through a third protein. Some results given as binding are weak or reduced against the parent protein; the word gives no strength. Tags and fused reporters may be left off the sequences shown.

Sequences of proteins named here, by UniProt entry; tags and fusion partners are left off.
UniProt O04719: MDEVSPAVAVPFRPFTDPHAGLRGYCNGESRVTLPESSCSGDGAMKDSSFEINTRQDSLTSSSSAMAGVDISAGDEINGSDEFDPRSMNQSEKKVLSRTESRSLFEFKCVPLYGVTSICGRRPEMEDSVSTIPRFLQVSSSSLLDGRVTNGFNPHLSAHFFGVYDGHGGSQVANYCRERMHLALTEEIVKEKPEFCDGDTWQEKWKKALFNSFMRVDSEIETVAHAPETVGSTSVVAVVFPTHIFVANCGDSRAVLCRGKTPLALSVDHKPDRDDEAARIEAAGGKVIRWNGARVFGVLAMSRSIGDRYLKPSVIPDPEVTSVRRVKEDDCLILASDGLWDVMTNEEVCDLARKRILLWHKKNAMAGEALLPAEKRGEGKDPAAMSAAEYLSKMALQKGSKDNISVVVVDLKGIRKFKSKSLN
UniProt P49597: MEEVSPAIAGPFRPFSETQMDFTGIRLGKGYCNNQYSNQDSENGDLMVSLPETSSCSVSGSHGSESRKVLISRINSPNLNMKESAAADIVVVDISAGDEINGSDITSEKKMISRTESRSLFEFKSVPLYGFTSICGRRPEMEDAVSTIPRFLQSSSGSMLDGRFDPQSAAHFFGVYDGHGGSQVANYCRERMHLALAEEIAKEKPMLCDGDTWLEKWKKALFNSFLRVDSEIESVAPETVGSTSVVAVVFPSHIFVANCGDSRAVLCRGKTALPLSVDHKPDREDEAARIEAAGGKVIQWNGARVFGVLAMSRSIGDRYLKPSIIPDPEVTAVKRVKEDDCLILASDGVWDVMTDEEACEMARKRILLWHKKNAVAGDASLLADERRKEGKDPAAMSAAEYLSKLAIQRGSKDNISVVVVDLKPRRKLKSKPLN
UniProt O82481: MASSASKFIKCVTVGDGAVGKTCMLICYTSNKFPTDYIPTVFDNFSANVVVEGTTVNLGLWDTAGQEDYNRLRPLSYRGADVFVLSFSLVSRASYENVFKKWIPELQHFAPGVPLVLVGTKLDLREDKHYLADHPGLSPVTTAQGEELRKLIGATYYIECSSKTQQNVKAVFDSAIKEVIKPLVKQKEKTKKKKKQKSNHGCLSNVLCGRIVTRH

How the values were obtained:
[1] = biological target: T1, RopGEF1 (yeast two-hybrid bait fusion) (Arabidopsis thaliana) (UniProt Q93ZY2); assay: two-hybrid; yeast PJ69-4A, USER-modified pGBT9 and pGADGH; growth on SD-L-W-H with 3 mM 3-AT for 6 d; ABI1/PYL1 without ABA
T1 sequence: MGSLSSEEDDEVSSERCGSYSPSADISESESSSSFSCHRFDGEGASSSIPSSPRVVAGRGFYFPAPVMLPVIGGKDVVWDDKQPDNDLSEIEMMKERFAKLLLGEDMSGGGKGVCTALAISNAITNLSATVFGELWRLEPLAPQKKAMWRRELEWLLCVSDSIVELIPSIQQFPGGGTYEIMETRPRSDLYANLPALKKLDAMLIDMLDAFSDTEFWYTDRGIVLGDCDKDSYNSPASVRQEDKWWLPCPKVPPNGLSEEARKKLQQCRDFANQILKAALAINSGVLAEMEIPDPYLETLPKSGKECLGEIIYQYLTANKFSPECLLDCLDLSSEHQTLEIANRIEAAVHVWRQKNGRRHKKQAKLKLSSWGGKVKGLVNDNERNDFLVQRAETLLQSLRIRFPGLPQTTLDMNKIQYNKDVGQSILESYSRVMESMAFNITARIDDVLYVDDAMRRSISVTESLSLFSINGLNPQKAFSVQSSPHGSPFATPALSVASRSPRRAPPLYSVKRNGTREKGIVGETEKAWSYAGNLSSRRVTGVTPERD

[2] = biological target: T2, YFP^C-GEF1 (Arabidopsis thaliana) (UniProt Q93ZY2); assay: split reporter; BiFC with YFP^N and YFP^C fusions in N. benthamiana leaves, confocal imaging; fluorescence quantified relative to ROP11-GEF1
T2 sequence: T1 sequence

| binding [1] | binding [2] | Substance |
| --- | --- | --- |
| binds weakly |  | ABI2 (yeast two-hybrid fusion) (from UniProt O04719 1-423) (enzyme) |
|  | binds weakly | YFP^N-ABI2 (from UniProt O04719 1-423) (enzyme) |

The remaining lines, values behind:

| Substance | binding [1] | binding [2] |
| --- | --- | --- |
| ABI1 (yeast two-hybrid fusion) (from UniProt P49597 1-434) (enzyme) | binds |  |
| ROP11 (yeast two-hybrid fusion) (from UniProt O82481 1-215) | binds |  |
| ROP11 (BiFC construct) (from UniProt O82481 1-215) |  | binds |
| YFP^N-ABI1 (from UniProt P49597 1-434) (enzyme) |  | binds |
